From PMC9925983
Results are given in words; binding and its absence hold for the method and conditions named. Binding seen in cells or lysates may run through a third protein. Some binding calls cover weakened binding; strength is not graded here.

Protein sequences, listed by entry. Tags and fused reporters are not part of them.
UniProt Q5EG47: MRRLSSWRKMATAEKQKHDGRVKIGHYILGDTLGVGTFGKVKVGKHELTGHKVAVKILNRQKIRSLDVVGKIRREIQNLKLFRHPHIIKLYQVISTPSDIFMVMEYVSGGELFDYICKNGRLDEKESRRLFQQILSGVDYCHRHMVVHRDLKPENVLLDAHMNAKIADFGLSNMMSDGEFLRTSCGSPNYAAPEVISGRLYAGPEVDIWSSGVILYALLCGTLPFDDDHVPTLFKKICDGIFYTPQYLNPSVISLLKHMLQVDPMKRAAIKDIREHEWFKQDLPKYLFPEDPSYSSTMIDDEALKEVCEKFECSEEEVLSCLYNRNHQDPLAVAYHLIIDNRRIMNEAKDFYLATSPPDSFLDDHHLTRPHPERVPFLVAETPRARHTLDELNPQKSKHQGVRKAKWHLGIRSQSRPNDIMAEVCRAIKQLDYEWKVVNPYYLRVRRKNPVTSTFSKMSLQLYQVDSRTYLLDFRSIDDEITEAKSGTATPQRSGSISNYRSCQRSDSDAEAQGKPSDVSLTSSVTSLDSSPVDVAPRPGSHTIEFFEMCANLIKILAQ

Biological target: AMPK alpha 1 (mouse, endogenous in renal vascular endothelial cells) (mouse (endogenous in renal vascular endothelial cells)) (UniProt Q5EG47)
Test: co-IP; Co-IP western blot from renal vascular endothelial cells of WT and Klotho+/- mice; endogenous proteins; precipitating antibody not given

binding | Binder
binds | LATS1 (mouse, endogenous in renal vascular endothelial cells) (enzyme, UniProt Q8BYR2 1-1129) MKRGEKPEGYRQMRPKTFPASNYPGSSRQMLQEIRESLRNLSKPSDASKAEHNLNKMSTEDPRQVRNPPKFGTHHKALQEIRNSLLPFANETSSSRSPSEVNPQMFQDLQAAGFDEDMVIQALQKTNNRSIEAAVEFISKMSYQDPRREQMSAAAARPINATMKPGNVQHSINRKQSWKGSKESLVPQRHGPSLGENVVYRSESPNSQADVGRPLSGSGIAAFAQAHPSNGQRVNPPPPPQVRSVTPPPPPRGQTPPPRGTTPPPPSWEPSSQTKRYSGNMEYVISRISPVPPGAWQEGYPPPPLTTSPMNPPSQAQRAISSVPVGRQPIIMQSTSKFNFTPGRPGVQNGGGQSDFIVHQNVPTGSVTRQPPPPYPLTPANGQSPSALQTGASAAPPSFANGNVPQSMMVPNRNSHNMELYNINVPGLQTAWPQSSSAPAQSSPSGGHEIPTWQPNIPVRSNSFNNPLGSRASHSANSQPSATTVTAITPAPIQQPVKSMRVLKPELQTALAPTHPSWMPQPVQTVQPTPFSEGTASSVPVIPPVAEAPSYQGPPPPYPKHLLHQNPSVPPYESVSKPCKDEQPSLPKEDDSEKSADSGDSGDKEKKQITTSPITVRKNKKDEERRESRIQSYSPQAFKFFMEQHVENVLKSHQQRLHRKKQLENEMMRVGLSQDAQDQMRKMLCQKESNYIRLKRAKMDKSMFVKIKTLGIGAFGEVCLARKVDTKALYATKTLRKKDVLLRNQVAHVKAERDILAEADNEWVVRLYYSFQDKDNLYFVMDYIPGGDMMSLLIRMGIFPENLARFYIAELTCAVESVHKMGFIHRDIKPDNILIDRDGHIKLTDFGLCTGFRWTHDSKYYQSGDHPRQDSMDFSNEWGDPSNCRCGDRLKPLERRAARQHQRCLAHSLVGTPNYIAPEVLLRTGYTQLCDWWSVGVILFEMLVGQPPFLAQTPLETQMKVINWQTSLHIPPQAKLSPEASDLIIKLCRGPEDRLGKNGADEIKAHPFFKTIDFSSDLRQQSASYIPKITHPTDTSNFDPVDPDKLWSDGSEEENISDTLNGWYKNGKHPEHAFYEFTFRRFFDDNGYPYNYPKPIEYEYIHSQGSEQQSDEDDQHTSSDGNNRDLVYV
binds | p-LATS1 (phosphorylated LATS1, mouse, endogenous in renal vascular endothelial cells) (enzyme, UniProt Q8BYR2 1-1129, phosphorylated (p-LATS1); site not given) MKRGEKPEGYRQMRPKTFPASNYPGSSRQMLQEIRESLRNLSKPSDASKAEHNLNKMSTEDPRQVRNPPKFGTHHKALQEIRNSLLPFANETSSSRSPSEVNPQMFQDLQAAGFDEDMVIQALQKTNNRSIEAAVEFISKMSYQDPRREQMSAAAARPINATMKPGNVQHSINRKQSWKGSKESLVPQRHGPSLGENVVYRSESPNSQADVGRPLSGSGIAAFAQAHPSNGQRVNPPPPPQVRSVTPPPPPRGQTPPPRGTTPPPPSWEPSSQTKRYSGNMEYVISRISPVPPGAWQEGYPPPPLTTSPMNPPSQAQRAISSVPVGRQPIIMQSTSKFNFTPGRPGVQNGGGQSDFIVHQNVPTGSVTRQPPPPYPLTPANGQSPSALQTGASAAPPSFANGNVPQSMMVPNRNSHNMELYNINVPGLQTAWPQSSSAPAQSSPSGGHEIPTWQPNIPVRSNSFNNPLGSRASHSANSQPSATTVTAITPAPIQQPVKSMRVLKPELQTALAPTHPSWMPQPVQTVQPTPFSEGTASSVPVIPPVAEAPSYQGPPPPYPKHLLHQNPSVPPYESVSKPCKDEQPSLPKEDDSEKSADSGDSGDKEKKQITTSPITVRKNKKDEERRESRIQSYSPQAFKFFMEQHVENVLKSHQQRLHRKKQLENEMMRVGLSQDAQDQMRKMLCQKESNYIRLKRAKMDKSMFVKIKTLGIGAFGEVCLARKVDTKALYATKTLRKKDVLLRNQVAHVKAERDILAEADNEWVVRLYYSFQDKDNLYFVMDYIPGGDMMSLLIRMGIFPENLARFYIAELTCAVESVHKMGFIHRDIKPDNILIDRDGHIKLTDFGLCTGFRWTHDSKYYQSGDHPRQDSMDFSNEWGDPSNCRCGDRLKPLERRAARQHQRCLAHSLVGTPNYIAPEVLLRTGYTQLCDWWSVGVILFEMLVGQPPFLAQTPLETQMKVINWQTSLHIPPQAKLSPEASDLIIKLCRGPEDRLGKNGADEIKAHPFFKTIDFSSDLRQQSASYIPKITHPTDTSNFDPVDPDKLWSDGSEEENISDTLNGWYKNGKHPEHAFYEFTFRRFFDDNGYPYNYPKPIEYEYIHSQGSEQQSDEDDQHTSSDGNNRDLVYV
